Results taken from patent US20220195057A1 (LANOVA MEDICINES, published 2022).
No constants are given. Whether binding was seen depends on the method and setting. Some entries that bind do so weakly or less than the wild type.

Protein sequences, listed by entry. Tags and fused reporters are not part of them.
UniProt P51685: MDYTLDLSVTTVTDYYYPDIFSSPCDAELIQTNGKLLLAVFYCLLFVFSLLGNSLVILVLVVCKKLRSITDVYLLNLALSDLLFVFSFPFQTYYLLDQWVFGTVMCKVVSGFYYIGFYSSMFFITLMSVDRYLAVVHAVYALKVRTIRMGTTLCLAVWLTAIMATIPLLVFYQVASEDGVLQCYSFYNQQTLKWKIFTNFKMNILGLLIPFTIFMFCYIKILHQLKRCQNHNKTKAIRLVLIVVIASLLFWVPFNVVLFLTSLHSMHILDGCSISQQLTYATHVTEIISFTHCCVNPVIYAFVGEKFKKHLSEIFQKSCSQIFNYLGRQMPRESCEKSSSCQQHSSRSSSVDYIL

B1: 88-xi (antibody, V domains shown)
VH: EVQLVETGGGLVQPKGSLKLSCAASGFTFNPNAMNWVRQAPGKGLEWVARIRSKSNNYATYYADSVKDRFTISRDDSQSMLYLQMNNLKTEDTAMYYCVRGKDDGYRHYAMDYWGQGTSVTVSS
VL: DIVMTQAAPSVPVTPGESVSISCRSSKSLLHSNGNTYLYWFLQRPGQSPQLLIYRMSNLASGVPDRFSGSGSGTAFTLRISRVEAEDVGVYYCMQHLEYPFTFGAGTKLELK
notes: also called 88D2C6; chimeric 88D2C6
B2: 137-H2L2 (antibody, V domains shown)
VH: EVQLVESGGGLVQPGGSLKLSCAASGFTFNTYAMNWVRQASGKGLEWVGRIRSKANNYATYYADSVKDRFTISRDDSKNTAYLQMNNLKTEDTAVYYCVRDRSRGEDYAMDYWGQGTLVTVSS
VL: DIVMTQSPLSLPVTPGEPASISCRSSKSLLHSNANTYLYWFLQKPGQSPQLLIYRMSNLASGVPDRFSGSGSGTAFTLKISRVEAEDVGVYYCMQHLEYPFTFGQGTKLEIK
notes: Humanized 137D1H10
B3: 137-H2L3 (antibody, V domains shown)
VH: EVQLVESGGGLVQPGGSLKLSCAASGFTFNTYAMNWVRQASGKGLEWVGRIRSKANNYATYYADSVKDRFTISRDDSKNTAYLQMNNLKTEDTAVYYCVRDRSRGEDYAMDYWGQGTLVTVSS
VL: DIVMTQSPLSLPVTPGEPVSISCRSSKSLLHSNANTYLYWFLQKPGQSPQLLIYRMSNLASGVPDRFSGSGSGTAFTLKISRVEAEDVGVYYCMQHLEYPFTFGQGTKLEIK
notes: Humanized 137D1H10
B4: 137-H3L3 (antibody, V domains shown)
VH: EVQLVESGGGLVQPGGSLKLSCAASGFTFNTYAMNWVRQASGKGLEWVARIRSKANNYATYYADSVKDRFTISRDDSKNTLYLQMNNLKTEDTAVYYCVRDRSRGEDYAMDYWGQGTLVTVSS
VL: DIVMTQSPLSLPVTPGEPVSISCRSSKSLLHSNANTYLYWFLQKPGQSPQLLIYRMSNLASGVPDRFSGSGSGTAFTLKISRVEAEDVGVYYCMQHLEYPFTFGQGTKLEIK
notes: Humanized 137D1H10
B5: 88-H2L2 (antibody, V domains shown)
VH: EVQLVESGGGLVQPGGSLKLSCAASGFTFNPNAMNWVRQASGKGLEWVGRIRSKSNNYATYYADSVKDRFTISRDDSKNTAYLQMNNLKTEDTAVYYCVRGKDDGYRHYAMDYWGQGTTVTVSS
VL: DIVMTQSPLSLPVTPGEPASISCRSSKSLLHSNANTYLYWFLQKPGQSPQLLIYRMSNLASGVPDRFSGSGSGTAFTLKISRVEAEDVGVYYCMQHLEYPFTFGGGTKVEIK
notes: Humanized 88D2C6
B6: 88-H1L2 (antibody, V domains shown)
VH: EVQLVESGGGLVQPGGSLKLSCAASGFTFNPNAMNWVRQASGKGLEWVGRIRSKSNNYATYYADSVKDRFTISRDDSKNTAYLQMNSLKTEDTAVYYCTRGKDDGYRHYAMDYWGQGTTVTVSS
VL: DIVMTQSPLSLPVTPGEPASISCRSSKSLLHSNANTYLYWFLQKPGQSPQLLIYRMSNLASGVPDRFSGSGSGTAFTLKISRVEAEDVGVYYCMQHLEYPFTFGGGTKVEIK
notes: Humanized 88D2C6
B7: 88-H1L3 (antibody, V domains shown)
VH: EVQLVESGGGLVQPGGSLKLSCAASGFTFNPNAMNWVRQASGKGLEWVGRIRSKSNNYATYYADSVKDRFTISRDDSKNTAYLQMNSLKTEDTAVYYCTRGKDDGYRHYAMDYWGQGTTVTVSS
VL: DIVMTQAPLSLPVTPGEPVSISCRSSKSLLHSNANTYLYWFLQKPGQSPQLLIYRMSNLASGVPDRFSGSGSGTAFTLKISRVEAEDVGVYYCMQHLEYPFTFGGGTKLEIK
notes: Humanized 88D2C6
B8: 88-H2L3 (antibody, V domains shown)
VH: EVQLVESGGGLVQPGGSLKLSCAASGFTFNPNAMNWVRQASGKGLEWVGRIRSKSNNYATYYADSVKDRFTISRDDSKNTAYLQMNNLKTEDTAVYYCVRGKDDGYRHYAMDYWGQGTTVTVSS
VL: DIVMTQAPLSLPVTPGEPVSISCRSSKSLLHSNANTYLYWFLQKPGQSPQLLIYRMSNLASGVPDRFSGSGSGTAFTLKISRVEAEDVGVYYCMQHLEYPFTFGGGTKLEIK
notes: Humanized 88D2C6
B9: 88-H3L2 (antibody, V domains shown)
VH: EVQLVESGGGLVQPGGSLKLSCAASGFTFNPNAMNWVRQASGKGLEWVARIRSKSNNYATYYADSVKDRFTISRDDSKNTLYLQMNNLKTEDTAVYYCVRGKDDGYRHYAMDYWGQGTTVTVSS
VL: DIVMTQSPLSLPVTPGEPASISCRSSKSLLHSNANTYLYWFLQKPGQSPQLLIYRMSNLASGVPDRFSGSGSGTAFTLKISRVEAEDVGVYYCMQHLEYPFTFGGGTKVEIK
notes: Humanized 88D2C6
B10: 88-H3L3 (antibody, V domains shown)
VH: EVQLVESGGGLVQPGGSLKLSCAASGFTFNPNAMNWVRQASGKGLEWVARIRSKSNNYATYYADSVKDRFTISRDDSKNTLYLQMNNLKTEDTAVYYCVRGKDDGYRHYAMDYWGQGTTVTVSS
VL: DIVMTQAPLSLPVTPGEPVSISCRSSKSLLHSNANTYLYWFLQKPGQSPQLLIYRMSNLASGVPDRFSGSGSGTAFTLKISRVEAEDVGVYYCMQHLEYPFTFGGGTKLEIK
notes: Humanized 88D2C6
B11: 137-xi (antibody, V domains shown)
VH: EVQLVESGGGLVQPKGSLKLSCTASGFTFNTYAMNWVRQAPGKGLEWVARIRSKANNYATYYADSVKDRFTISRDDSQRILYLQMNNLKAEDTAMYYCVRDRSRGEDYAMDYWGQGTSVTVSS
VL: DIVMTQAAPSVPVTPGESVSISCRSSKSLLHSNGNTYLYWFLQRPGQSPQLLIYRMSNLASGVPDRFSGSGSGTAFTLRISRVEAEDVGVYYCMQHLEYPFTFGAGTKLELK
notes: also called 137D1H10; chimeric 137D1H10

Columns and labels:
[1] = molecular target: human chemokine (C-C motif) receptor 8 (CCR8) protein (human) (UniProt P51685); assay: cell binding, U2OS cells expressing human CCR8, chimeric antibodies
[2] = molecular target: human chemokine (C-C motif) receptor 8 (CCR8) protein (human) (UniProt P51685); assay: cell binding, CCR8-expressing cells (FIG. 4)
[3] = molecular target: human chemokine (C-C motif) receptor 8 (CCR8) protein (human) (UniProt P51685); assay: cell binding, CCR8-expressing cells
[4] = molecular target: human chemokine (C-C motif) receptor 8 (CCR8) protein (human) (UniProt P51685); assay: cell binding, CCR8-expressing cells (FIG. 3)

Binder	binding [1]	binding [2]	binding [3]	binding [4]
B1	binds			
B2		binds		
B3		binds		
B4		binds		
B5			binds	binds
B6			binds	binds
B7			binds	binds
B8			binds	binds
B9			binds	binds
B10			binds	binds
B11	binds			
